Out of some 330,000 compounds screened, about 1,000 (0.3%) were called active. Inconclusive means that the source gave no clear call. Such entries were picked first, then a sample of the others. The call rests on the fitted dose curve; in most records, active means well fitted inhibition curve with a large enough effect; inconclusive means small, poorly fitted or top-dose-only effect; inactive means no such curve, though single readings can be large or run the other way; tested in mouse RAW 264.7 cells. Potencies beside an inconclusive call are fits to weak or partial responses and may not hold up.
test: qHTS for Inhibitors of Cell Surface uPA Generation; settings: cell surface uPA generation assay; series mostly up to 38.3 µM; further: nearly all actives have a fitted effect of over 55% in size
Outline: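 Murine RAW 264.7 cells are treated for 24 h with compound up to 38.3 uM final. Cell ATP, measured by ATP-Lite, remains high if blocking the uPA cascade prevents LF from reaching the cytoplasm.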
Potency means the concentration at half of the fitted maximal effect.

| SMILES | Potency |
| --- | --- |
| COc1cccc(CN2CCNC(=O)C2CC(=O)NCCOc2cccnc2)c1 (configuration not stated) | inactive |
| CCSc1nnc(SCC(=O)NC2CCCCC2)s1 | inconclusive: 1.12 µM [inhibitor, single point] |
| C=CCn1c(O)c(N=NC(=S)Nc2ccccc2F)c2ccccc21 | inconclusive: 7.08 µM [inhibitor, partial curve, poor fit] |
| COc1ccccc1C(=O)Nc1ccc(OCC(=O)N2CC(C)OC(C)C2)cc1 (configuration not stated) | inconclusive: 10 µM [inhibitor, partial curve, poor fit] |
| O=C(COc1ccc2c(c1)oc(=O)c1ccccc12)NCCCN1CCOCC1 | inconclusive: 7.94 µM [inhibitor, partial curve, poor fit] |
| COCC(=O)N(C)C[C@H]1N[C@@](C)(C(=O)OC)[C@H]2C(=O)N(C)C(=O)[C@@H]12 | inactive |
| O=C(N/N=C/c1cccc(F)c1)c1ccc(Cl)cc1 | inactive |
| Cc1ccc(C)c(N=Nc2nc3ccccc3n2C)c1 | inconclusive: 5.62 µM [inhibitor, single point] |
| Cc1nc(Nc2ccccc2Br)c2nnn(Cc3ccccc3)c2n1 | inconclusive: 0.316 µM [inhibitor, full curve, poor fit] |
| CC1(C)CC(=O)c2sc(NC(=O)c3ccc4ncsc4c3)nc2C1 | inconclusive: 5.62 µM [inhibitor, partial curve, poor fit] |
| CC(=O)NC(c1cccs1)c1cc(F)c2cccnc2c1O (configuration not stated) | active: 5.01 µM |
| COc1cccc(NC(=O)CN(C2=NC3CS(=O)(=O)CC3S2)c2cccc(C)c2)c1 (configuration not stated) | inconclusive: 10 µM [inhibitor, single point] |
| COCCn1c(-c2ccc(Cl)cc2)cnc1SCC(=O)NCCc1ccc(OC)c(OC)c1 | inactive |
| O=C(Cn1nnc(-c2ccccc2F)n1)N1CCCCC1 | inconclusive: 28.2 µM [inhibitor, single point] |
| COc1cc(C(=O)NCC(c2cccs2)N2CCOCC2)c([N+](=O)[O-])cc1OC (configuration not stated) | inactive |
| Oc1c(N=NC(=S)Nc2ccccc2F)c2ccccc2n1Cc1ccccc1F | inconclusive: 4.47 µM [inhibitor, partial curve, poor fit] |
| COc1cc(C#Cc2c(-c3cncn3C)n(C)c3ccc(-c4cc(OC)c(OC)c(OC)c4)cc23)cc(OC)c1 | inconclusive: 15.8 µM [inhibitor, single point] |
| Cn1c(CCN2CCN(c3ccccn3)CC2)nc2cc(NC(=O)COc3ccc(Cl)cc3)ccc21 | inconclusive: 3.98 µM [inhibitor, partial curve] |
| Cc1ccc(OCC(=O)Nc2cc(S(=O)(=O)N3CCCCC3)ccc2N2CCN(C)CC2)c(C)c1 | inconclusive: 8.91 µM [inhibitor, single point] |
| COc1ccc(C(=O)/C=C2/C(=O)Nc3ccccc32)cc1 | inconclusive: 11.2 µM [inhibitor, partial curve, poor fit] |
| CC(OC(=O)CCc1cc(C(C)(C)C)c(O)c(C(C)(C)C)c1)C(=O)NC1CC1 (configuration not stated) | inactive |

Structures listed so far containing two or more sulfur atoms:

| SMILES | Potency |
| --- | --- |
| CCSc1nnc(SCC(=O)NC2CCCCC2)s1 | inconclusive: 1.12 µM [inhibitor, single point] |
| CC1(C)CC(=O)c2sc(NC(=O)c3ccc4ncsc4c3)nc2C1 | inconclusive: 5.62 µM [inhibitor, partial curve, poor fit] |
| COc1cccc(NC(=O)CN(C2=NC3CS(=O)(=O)CC3S2)c2cccc(C)c2)c1 (configuration not stated) | inconclusive: 10 µM [inhibitor, single point] |

Later entries

| SMILES | Potency |
| --- | --- |
| COc1ccc(CNC(=O)COC(=O)c2ccc(C)c(S(=O)(=O)N3CCOCC3)c2)cc1OC | inconclusive: 7.94 µM [inhibitor, partial curve, poor fit] |
| COc1cccc(-n2c(SCC(=O)N3CCCCC3)nc3c([nH]c4ccccc43)c2=O)c1 | inactive |
| CCCN(CCC)Cc1c(C(=O)N/N=C/C(C)=C\c2ccccc2)nnn1-c1nonc1N | inactive |
| COc1cccc(OC)c1C(=O)Nc1cccc(S(=O)(=O)Nc2ccccc2Cl)c1 | inconclusive: 8.91 µM [inhibitor, partial curve, poor fit] |
| Cc1nc([N+](=O)[O-])c(SCC(N)=O)n1Cc1ccccc1 | inconclusive: 6.31 µM [inhibitor, single point] |
| Cc1cc(Cl)ccc1Oc1ncnc2onc(C)c12 | inconclusive: 1.12 µM [inhibitor, full curve, poor fit] |
| COc1ccc2oc(C(=O)Nc3nc(-c4ccccn4)cs3)c(C)c2c1 | inconclusive: 15.8 µM [inhibitor, single point] |
| CCOc1ccccc1CN1CCC(Oc2ccc(C(=O)NCc3ccccn3)cc2)CC1 | inconclusive: 7.08 µM [inhibitor, single point] |
| O=C(N/N=C/c1cn[nH]c1-c1ccccc1)c1ccco1 | inactive |
| CN1CCO/C1=C(\C(Cl)=C(Cl)Cl)[N+](=O)[O-] | inactive |
| O=C1CN(C(=O)COc2ccc([N+](=O)[O-])cc2Cl)c2ccccc2N1 | inconclusive: 0.398 µM [inhibitor, full curve, poor fit] |
| CN(C)c1ccc(/C=N/NC(=O)c2ccc3c(c2)OCCO3)cc1 | inconclusive: 8.91 µM [inhibitor, partial curve] |
| COCCN(C(=O)COC(=O)C(C)(C)Oc1ccc(Cl)cc1)c1c(N)n(Cc2ccccc2)c(=O)[nH]c1=O | inconclusive: 12.6 µM [inhibitor, single point] |
| Cc1ccc(C(=O)N2CCc3cc4c(cc3C2C)OCCCO4)cc1 (configuration not stated) | inconclusive: 8.91 µM [inhibitor, partial curve, poor fit] |
| CC(C)(C)c1ccc(C(=O)Nc2ccc(O)c3c(=O)cc(-c4cccc(Cl)c4)oc23)cc1 | inactive |
| COc1ccc(C(=O)NC2CC2)cc1OC1CCN(Cc2ccc(F)c(F)c2)CC1 | inconclusive: 3.55 µM [inhibitor, partial curve, poor fit] |
| COc1ccc(NC(=S)N(CCCN2CCCC(C)C2)Cc2cccs2)cc1 (configuration not stated) | inactive |
| O=C(Nc1nc2cc3c(cc2s1)OCCO3)c1cccc(N2C(=O)CCC2=O)c1 | inconclusive: 5.01 µM [inhibitor, partial curve, poor fit] |
| Cc1ccc(S(=O)(=O)CCN2CCC(O)(c3ccccc3)CC2)cc1 | inconclusive: 3.16 µM [inhibitor, partial curve, poor fit] |
| Cc1ccc(-n2sc3ccccc3c2=O)cc1 | inactive |
| Cc1nnc(NC(=O)CSc2nc3[nH]ncc3c(=O)[nH]2)s1 | inconclusive: 12.6 µM [inhibitor, single point] |
